Among the data in article doi:10.1101/2022.01.11.475809 are binding values, retold here.

By UniProt entry, the sequences of proteins in these tests, tags left out. Where a name states a change or a piece, a line headed by the entry shows the natural chain unless it says otherwise. Residues count along the entry.
UniProt P83916, whole entry: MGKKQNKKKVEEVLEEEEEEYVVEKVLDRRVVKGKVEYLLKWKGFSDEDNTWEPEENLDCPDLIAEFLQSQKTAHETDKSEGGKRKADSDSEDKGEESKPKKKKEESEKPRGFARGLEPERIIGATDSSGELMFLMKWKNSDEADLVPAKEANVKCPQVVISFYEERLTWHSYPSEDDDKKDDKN
UniProt P83916, 1-116, stated change not applied: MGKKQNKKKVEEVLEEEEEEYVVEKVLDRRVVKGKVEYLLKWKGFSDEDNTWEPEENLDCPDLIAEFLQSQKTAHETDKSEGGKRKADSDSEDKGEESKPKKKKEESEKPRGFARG
UniProt Q06587, whole entry: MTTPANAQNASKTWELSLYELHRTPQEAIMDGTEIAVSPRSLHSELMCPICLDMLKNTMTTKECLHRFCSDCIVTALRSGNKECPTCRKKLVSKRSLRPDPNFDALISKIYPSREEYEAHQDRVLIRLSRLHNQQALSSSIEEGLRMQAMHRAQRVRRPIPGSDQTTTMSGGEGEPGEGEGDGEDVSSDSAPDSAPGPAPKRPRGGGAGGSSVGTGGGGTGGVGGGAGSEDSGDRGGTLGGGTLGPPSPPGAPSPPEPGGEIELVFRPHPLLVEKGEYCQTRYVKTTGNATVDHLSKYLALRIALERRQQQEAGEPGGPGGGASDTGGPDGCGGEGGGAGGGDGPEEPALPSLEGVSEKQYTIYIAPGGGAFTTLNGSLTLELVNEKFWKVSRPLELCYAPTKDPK
UniProt Q13263, whole entry: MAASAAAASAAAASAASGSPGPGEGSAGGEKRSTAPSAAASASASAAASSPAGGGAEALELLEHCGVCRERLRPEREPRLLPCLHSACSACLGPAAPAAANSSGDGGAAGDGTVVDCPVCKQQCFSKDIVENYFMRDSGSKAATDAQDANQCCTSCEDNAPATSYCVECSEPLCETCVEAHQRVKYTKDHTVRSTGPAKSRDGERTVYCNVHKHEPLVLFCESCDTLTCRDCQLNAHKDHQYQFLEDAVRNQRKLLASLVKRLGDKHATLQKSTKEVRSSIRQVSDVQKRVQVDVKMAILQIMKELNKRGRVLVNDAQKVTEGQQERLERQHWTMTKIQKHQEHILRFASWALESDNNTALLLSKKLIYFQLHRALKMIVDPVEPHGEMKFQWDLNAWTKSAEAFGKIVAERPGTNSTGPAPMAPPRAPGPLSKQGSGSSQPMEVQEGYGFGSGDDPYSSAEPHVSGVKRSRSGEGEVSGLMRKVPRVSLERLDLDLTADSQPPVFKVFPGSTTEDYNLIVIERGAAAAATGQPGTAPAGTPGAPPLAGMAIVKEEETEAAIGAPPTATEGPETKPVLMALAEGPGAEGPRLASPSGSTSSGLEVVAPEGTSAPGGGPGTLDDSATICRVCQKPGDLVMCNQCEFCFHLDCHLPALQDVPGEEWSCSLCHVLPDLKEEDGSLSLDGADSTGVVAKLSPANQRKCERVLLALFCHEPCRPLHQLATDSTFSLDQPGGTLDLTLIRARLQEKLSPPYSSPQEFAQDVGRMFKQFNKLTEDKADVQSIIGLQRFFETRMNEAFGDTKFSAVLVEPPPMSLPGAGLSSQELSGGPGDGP

These are yes or no findings as the source states them, for the method shown. In cells and extracts the contact can be indirect. Some entries that bind do so weakly or less than the wild type.

Holding throughout (assay): co-IP
Assay [1] deals with Flag-CD HP1β (Δ amino acids 117-185) (UniProt P83916).
Assay [2] concerns the target Flag-CSD HP1β (Δ amino acids 22-79) (UniProt P83916).
A further assay deals with HA HP1β (UniProt P83916).
The target in assay [3] is Flag HP1β (full length Heterochromatin Protein1 beta) (UniProt P83916).

For FLAG RING1A (from UniProt Q06587 1-406), the binding entry is “no binding” in assay [1], “binds” in assay [2] and “binds” with HA HP1β.
Consider “endogenous RING1A (from UniProt Q06587 1-406)”, for which the binding result in assay [3] is given as “binds”.
As for KAP1 (from UniProt Q13263 1-835), the binding entry in assay [3] and in assay [2] was “binds” throughout.
